Reference: PubChem BioAssay AID504444 (National Center for Advancing Translational Sciences (NCATS), 2011)
Out of some 360,000 compounds screened, about 7,500 (2.1%) were called active. This list was built around the results that the source calls inconclusive (neither active nor inactive); the mix of calls is not that of the screen. Calls come from the whole dose curve; as a rule, active = well fitted inhibition curve with a large enough effect; inconclusive = small, poorly fitted or top-dose-only effect, or effect the other way; inactive = flat fitted curve, though single readings scatter. Where the call is inconclusive, the potency comes from a doubtful curve fit.
Potency is the fitted concentration of half-maximal effect.

Experiment: Nrf2 qHTS screen for inhibitors; note: nearly all actives have a fitted effect of over 60% in size
Conditions: A549 ARE-Fluc reporter, luciferase luminescence, 18-24 h; series mostly up to 46 µM
Method in brief: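 Cells were seeded and rested 2 h, then exposed to compounds for 18-24 h. CellTiter-Fluor was read first as a viability measure. BugLite was added 15 min before the final luminescent read of ARE-luciferase activity in A549 cells.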
With COc1ccc(Cn2ccnc2SCC(=O)NC2CCCCC2)cc1 the Potency was inconclusive: 23.1 µM [falling, partial curve, poor fit].
For Cc1cc(C)cc(NS(=O)(=O)c2csc(C(N)=O)c2)c1, the Potency was inconclusive: 25.9 µM [falling, partial curve].
With CC(=O)c1sc(NC(=O)C=C(C)C)nc1C the Potency was inconclusive: 25.9 µM [activator, partial curve, poor fit].
For CCn1c(=O)cc(SCC(=O)N2CCN(Cc3ccc4c(c3)OCO4)CC2)c2ccccc21, the Potency was inconclusive: 16.4 µM [falling, single point].
For Cc1ncccc1C(=O)N1CCCC(CCC(=O)N2CCN(c3ccccn3)CC2)C1 (configuration not stated), the Potency was “inactive”.
For CC1CCCN(C(=O)C(=O)c2cn(CC(=O)N3CCCCCC3)c3ccccc23)C1 (configuration not stated), the Potency was inconclusive: 16.4 µM [falling, partial curve, poor fit].
With O=C(NNC(=O)c1ccccc1F)c1ccc2[nH]c(=O)c(=O)[nH]c2c1 the Potency was inconclusive: 32.6 µM [activator, single point].
With Cc1ccc(/C=C2/NC(=O)N(Cc3ccccc3)C2=O)s1 the Potency was inconclusive: 4.61 µM [activator, partial curve].
In the case of Nc1cc(N)nc(SCC(=O)NCCC2=CCCCC2)n1, the Potency is reported as inconclusive: 18.4 µM [activator, single point].
In the case of Cc1ccc(S(=O)(=O)[N-]c2nc3ccccc3nc2-n2cc[n+](CCC(C)C)c2)cc1, the Potency is reported as inconclusive: 0.651 µM [activator, full curve, poor fit].
In the case of O=C(NCCc1ccccc1)C(=O)NCC(c1cccnc1)N1CCN(c2ccc(F)cc2)CC1 (configuration not stated), the Potency is reported as inconclusive: 29.1 µM [falling, single point].
In the case of CCOc1cc(/C=N\NC(=O)c2ccc(C)nc2)ccc1OC(=O)c1ccc(F)cc1, the Potency is reported as inconclusive: 6.51 µM [falling, partial curve, poor fit].
For O=C(NC1CCCC1)C(c1ccccc1)N(C(=O)c1ccco1)C1CCCC1 (configuration not stated), the Potency was inconclusive: 25.9 µM [falling, partial curve, poor fit].
With CCOC(=O)N1CCC(NC(=O)CSCc2nc(-c3ccc(OCC)cc3)oc2C)CC1 the Potency was “inactive”.
For Cc1cccc(Cn2c(=O)n(CCCC(=O)NCc3ccco3)c(=O)c3ccccc32)c1, the Potency was inconclusive: 29.1 µM [falling, single point].
For CCn1c(C)nc2cc(C(=O)NNC(=S)Nc3ccccc3OC)ccc21, the Potency was inconclusive: 4.61 µM [activator, partial curve, poor fit].
For CNC(=O)c1c(Cl)cnn1-c1ccccc1, the Potency was inconclusive: 2.91 µM [activator, full curve, poor fit].
For CC/C=C/[C@@H](c1ccccc1)[C@H](C)C(O)CC(=O)SC(C)(C)C (some centres not stated), the Potency was “inactive”.
With Fc1cccc(CSc2nnc3c(n2)[nH]c2ccccc23)c1 the Potency was inconclusive: 2.59 µM [falling, full curve].
For O=C(Nc1ccc(F)cc1)c1nc(S(=O)(=O)Cc2ccccc2)ncc1Cl, the Potency was inconclusive: 29.1 µM [falling, single point].
For COc1ccc(OCC(O)CON2C(=O)c3ccccc3C2=O)cc1 (configuration not stated), the Potency was inconclusive: 3.66 µM [falling, partial curve, poor fit].
With CNc1nnc(CSc2nc3ccccc3s2)s1 the Potency was inconclusive: 4.11 µM [activator, single point].
For CCc1cccc2c3c([nH]c12)C(CC)(CC(=O)O)OCC3 (configuration not stated), the Potency was active: 10.3 µM.
With CC(=O)c1ccc(NC(=O)Cn2c3ncccc3c(=O)n2-c2ccc(C)cc2)cc1 the Potency was inconclusive: 29.1 µM [falling, single point].
For COc1ccccc1Nc1nc(C)cs1, the Potency was inconclusive: 29.1 µM [activator, single point].
With CC(C)C(=O)Nc1ccc2c(c1)oc1ccccc12 the Potency was inconclusive: 2.31 µM [activator, partial curve].
With CC(C)(C)NNC(=S)Nc1ccc(S(=O)(=O)N2CCOCC2)cc1 the Potency was inconclusive: 29.1 µM [falling, single point].
In the case of CCOC(=O)c1c(C)[nH]c(C(=O)N2CCc3cc(OC)c(OC)cc3C2)c1C, the Potency is reported as active: 23.1 µM.
For CCOc1ccc(-n2cccc2C=O)cc1, the Potency was inconclusive: 11.6 µM [activator, partial curve].
In the case of CCSCCc1nnc(NC(=O)Nc2cccc(C(F)(F)F)c2)s1, the Potency is reported as inconclusive: 29.1 µM [falling, single point].
For COc1ccc(C(CNC(=O)c2ccc(C)cc2)N2CCOCC2)cc1 (configuration not stated), the Potency was “inactive”.
In the case of c1ccc(C2=NNC(c3ccccn3)=NN2)nc1, the Potency is reported as inconclusive: 1.3 µM [activator, full curve, poor fit].
With c1ccc2oc(CCc3nc4ccccc4o3)nc2c1 the Potency was “inactive”.
With Cc1ccnc(N2CCC(C(=O)Nc3cccc(C(F)(F)F)c3)CC2)n1 the Potency was active: 13 µM.
For O=C(NC(=S)Nc1cccnc1Cl)c1ccco1, the Potency was inconclusive: 25.9 µM [activator, single point].
In the case of C#CCOc1c(Cl)cc(/C=C2/C(=O)ON=C2C)cc1OCC, the Potency is reported as “inactive”.
For COC(=O)c1c(C(=O)OC)c(-c2ccc(Cl)c(Cl)c2)n2c1CCC2, the Potency was active: 18.4 µM.
With COCc1cc(C)nc2sc(C(=O)NN)c(-n3cccc3)c12 the Potency was inconclusive: 0.82 µM [falling, full curve, poor fit].
With COc1ccc(COCC(O)CN2CCc3ccccc3C2)cc1OC (configuration not stated) the Potency was “inactive”.
With CCOc1ccc(NC(=O)CCC(=O)NNC(=O)COc2ccc(C)cc2)cc1 the Potency was inconclusive: 29.1 µM [activator, single point].
For O=C(NCc1csc(-c2cccs2)n1)c1cccc(Cl)c1, the Potency was inconclusive: 20.6 µM [falling, single point].
With O=C(CSCc1ccc(F)cc1)N1CCN(c2ccccc2)CC1 the Potency was inconclusive: 6.51 µM [activator, single point].
With COc1cccc(NC(=O)Cn2c(=O)n(-c3cccc(OC)c3)c(=O)c3c4c(sc32)CCCC4)c1 the Potency was “inactive”.
In the case of NC(=O)C(=O)N/N=C1\CCc2ccccc21, the Potency is reported as inconclusive: 10.3 µM [activator, partial curve].
For CCC(C)NC(=O)c1cnn2c1NC(c1ccc3c(c1)OCO3)CC2C(F)(F)F (configuration not stated), the Potency was inconclusive: 29.1 µM [falling, single point].
For CCCCNC(=O)C1CC(c2cccc(F)c2)=NO1 (configuration not stated), the Potency was inconclusive: 8.2 µM [activator, partial curve].
In the case of NC(=O)NC(Cc1ccccc1)C(=O)Nc1ccc(S(N)(=O)=O)cc1 (configuration not stated), the Potency is reported as inconclusive: 20.6 µM [activator, partial curve, poor fit].
With COc1ccc(NS(=O)(=O)c2ccc3[nH]c4c(c3c2)CCCC4)c(OC)c1 the Potency was inconclusive: 18.4 µM [falling, single point].
For COc1ccc(NC(=O)NNC(=O)COc2ccc(Cl)cc2C)cc1OC, the Potency was inconclusive: 18.4 µM [activator, single point].
For CCOc1ccc(Nc2nc3ccccc3c3nnc(CC)n23)cc1, the Potency was inconclusive: 2.31 µM [falling, partial curve, poor fit].
With Cc1ccc(C(=O)OCc2nc3ccccc3s2)o1 the Potency was inconclusive: 18.4 µM [activator, partial curve, poor fit].
For Oc1c(Cl)cc(Cl)cc1/C=N/NC(=S)NC1CC2C=CC1C2 (configuration not stated), the Potency was inconclusive: 29.1 µM [falling, single point].
In the case of CCCc1sc(N/N=C/c2ccccn2)nc1-c1ccc(Br)cc1, the Potency is reported as active: 2.91 µM.
With Cc1ccc(F)cc1NCC(=O)Nc1ccc(Br)cc1 the Potency was inconclusive: 5.8 µM [activator, partial curve].
For COc1cc(-c2cc(C(=O)OCC(=O)NC3CC3)c3ccccc3n2)cc(OC)c1OC, the Potency was inconclusive: 32.6 µM [activator, single point].
For CC(c1ccco1)N(C(=O)COc1ccc(Cl)cc1)c1ccccn1 (configuration not stated), the Potency was inconclusive: 2.82 µM [activator, full curve].
With CC(C)CCn1c(N)c(S(=O)(=O)c2cccs2)c2nc3ccccc3nc21 the Potency was inconclusive: 23.1 µM [falling, partial curve, poor fit].
In the case of COC(=O)C1=C(C)Nc2nnnn2C1c1ccc(Cl)cc1Cl (configuration not stated), the Potency is reported as inconclusive: 32.6 µM [falling, single point].
With CCOc1c(/C=C(\C#N)C(N)=O)c2ccccc2n1CC the Potency was inconclusive: 10.3 µM [falling, partial curve, poor fit].
In the case of COc1ccc(NC(=O)C2CCN(S(=O)(=O)c3c(C)noc3/C=C/c3ccco3)CC2)cc1, the Potency is reported as “inactive”.
In the case of CCCCC(=O)O[C@]1(C(=O)CO)CC[C@H]2[C@@H]3CCC4=CC(=O)CC[C@]4(C)[C@H]3[C@@H](O)C[C@@]21C, the Potency is reported as active: 0.0164 µM.
In the case of COc1cc(CNCc2ccccc2)cc(Cl)c1OC, the Potency is reported as “inactive”.
In the case of O=C1C(Cl)=C(NC(=O)c2ccccc2)C(=O)C(Cl)=C1NC(=O)c1ccccc1, the Potency is reported as inconclusive: 18.4 µM [falling, single point].
In the case of Cc1oc(-c2ccc(Cl)cc2)nc1CN1CCCC(C(=O)N2CCN(C(=O)c3ccco3)CC2)C1 (configuration not stated), the Potency is reported as active: 3.26 µM.
For Cc1cc(C)cc(NC(=O)COc2coc(CN3CCN(c4ccccc4)CC3)cc2=O)c1, the Potency was inconclusive: 1.46 µM [falling, full curve, poor fit].
In the case of Nc1c(NCCc2ccccc2)c2ccccc2oc1=O, the Potency is reported as inconclusive: 32.6 µM [falling, single point].
In the case of CCOc1ccc(N(CC(=O)NC2CC3CCC2C3)S(=O)(=O)c2ccc(C)cc2)cc1 (configuration not stated), the Potency is reported as inconclusive: 16.4 µM [falling, single point].
